# Assay results as given in US20080020003A1, “Methods for the delivery of a beta2 agonist to induce bronchodilation and formulations for use in the same” (Verus Pharmaceuticals, Inc., priority 2006, published 2008).
# System: patient experiencing chronic obstructive pulmonary disease (COPD)
# Assay: treatment of a patient experiencing COPD by nebulized inhalation mixture (paper example)
# Type: in vivo
# Details: Example 4: about 0.18 mg/dose, Pari eFlow, less than about 2 minutes
# Method: (§1) A patient experiencing chronic obstructive pulmonary disease (COPD) initiates treatment by inducing bronchodilation. The patient induces bronchodilation by placing a dose of an inhalation mixture comprising about 0.18 mg/dose of formoterol into the reservoir of a commercially available Pari eFlow® vibrating membrane inhalation nebulizer. The delivery of the inhalation mixture by the nebulizer is then initiated.
# as §1, with “0.20” for “0.18”, “albuterol sulfate” for “formoterol”, “nebulizer.” for “nebulizer. The delivery of the inhalation mixture by the nebulizer is then initiated.”
smiles,measurement,value
COc1ccc(CC(C)NCC(O)c2ccc(O)c(NC=O)c2)cc1 (stereo not shown) [formoterol],symptoms of COPD,ameliorated or relieved
